# This is one part of the list.
# B1: Actd5 (Actinidia), P84527 (protein)
# chain: ISSCNGPCRDLNDCDGQLICIKGKCNDDPQVGTHICRGTTHSHQPGGCKPSGTLTCRGKSYPTYDCSPPVTSSTPAKLTNNDFSEGGDDGGPSECDESYHNNNERIVALSTGWYNGGSRCGKMIRITASNGKSVSAKVVDECDSRHGCDKEHAGQPPCRNNIVDGSNAVWSALGLDKNVGVVDITWSMA
# How the values were obtained:
# Assay in all cases: glycan array binding signal (z-score within array); higher = stronger binding
# Conditions in all cases: glycan notation: IUPAC condensed, linker removed
# [1] = target: GalNAc(b1-4)GlcNAc
# Procedure, shortened: (§1)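 Columns mapping to the same glycan were averaged after glycan names were converted to IUPAC-condensed notation. The data come from 3228 arrays in the Consortium for Functional Glycomics database, limited to those with an available protein sequence. Binding is reported as a within-array Z-score averaged across arrays of one protein sequence and across linkers.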
# [2] = target: GalNAc(b1-4)GlcNAc(b1-2)Man
# Procedure, shortened: as §1
# [3] = target: GalNAc(b1-4)GlcNAc(b1-2)Man(a1-3)[GalNAc(b1-4)GlcNAc(b1-2)Man(a1-6)]Man(b1-4)GlcNAc(b1-4)GlcNAc
# Procedure, shortened: as §1
# [4] = target: GalNAc(b1-4)GlcNAc(b1-3)GalNAc(b1-4)GlcNAc
# Procedure, shortened: as §1
# [5] = target: GalNAc(b1-4)GlcNAc6S
# Procedure, shortened: as §1
# [6] = target: GalNAc(b1-6)GalNAc
# Procedure, shortened: as §1
# [7] = target: GalNAc3S(b1-4)GlcNAc
# Procedure, shortened: as §1
# [8] = target: GalNAc3S(b1-4)GlcNAc3S
# Procedure, shortened: as §1
# [9] = target: GalNAc3S(b1-4)[Fuc(a1-3)]GlcNAc
# Procedure, shortened: as §1
# [10] = target: GalNAc4S6S(b1-4)GlcNAc
# Procedure, shortened: as §1
# [11] = target: GalNAc6S(b1-4)GlcNAc
# Procedure, shortened: as §1
# [12] = target: Glc(a1-4)Glc
# Procedure, shortened: as §1
# [13] = target: Glc(a1-4)Glc(a1-4)Glc(a1-4)Glc
# Procedure, shortened: as §1
# [14] = target: Glc(a1-6)Glc(a1-6)Glc
# Procedure, shortened: as §1
# [15] = target: Glc(a1-6)Glc(a1-6)Glc(a1-6)Glc
# Procedure, shortened: as §1
# [16] = target: Glc(b1-4)Glc
# Procedure, shortened: as §1
# [17] = target: Glc(b1-6)Glc
# Procedure, shortened: as §1
# [18] = target: GlcA(b1-3)Gal
# Procedure, shortened: as §1
# [19] = target: GlcA(b1-3)GlcNAc
# Procedure, shortened: as §1
# [20] = target: GlcA(b1-6)Gal
# Procedure, shortened: as §1
# [21] = target: GlcA3S(b1-3)Gal(b1-4)GlcNAc(b1-2)Man
# Procedure, shortened: as §1
# [22] = target: GlcA3S(b1-3)Gal(b1-4)GlcNAc(b1-3)Gal(b1-4)Glc
# Procedure, shortened: as §1
# [23] = target: GlcNAc(a1-3)Gal(b1-4)GlcNAc
# Procedure, shortened: as §1
# [24] = target: GlcNAc(a1-4)Gal(b1-3)GlcNAc
# Procedure, shortened: as §1
# [25] = target: GlcNAc(a1-4)Gal(b1-4)GalNAc
# Procedure, shortened: as §1
# [26] = target: GlcNAc(a1-4)Gal(b1-4)GlcNAc
# Procedure, shortened: as §1
# [27] = target: GlcNAc(a1-4)Gal(b1-4)GlcNAc(b1-3)Gal(b1-4)Glc
# Procedure, shortened: as §1
# [28] = target: GlcNAc(a1-4)Gal(b1-4)GlcNAc(b1-3)Gal(b1-4)GlcNAc
# Procedure, shortened: as §1
# [29] = target: GlcNAc(a1-4)Gal(b1-4)GlcNAc(b1-3)Gal(b1-4)GlcNAc(b1-3)Gal(b1-4)GlcNAc
# Procedure, shortened: as §1
# [30] = target: GlcNAc(a1-4)Gal(b1-4)GlcNAc(b1-3)Gal(b1-4)[Fuc(a1-3)]GlcNAc(b1-3)Gal(b1-4)[Fuc(a1-3)]GlcNAc
# Procedure, shortened: as §1
# [31] = target: GlcNAc(a1-6)Gal(b1-4)GlcNAc
# Procedure, shortened: as §1
# [32] = target: GlcNAc(b1-2)Gal(b1-3)GalNAc
# Procedure, shortened: as §1
# [33] = target: GlcNAc(b1-2)Man(a1-3)[GlcNAc(b1-2)Man(a1-6)]Man(b1-4)GlcNAc(b1-4)GlcNAc
# Procedure, shortened: as §1
# [34] = target: GlcNAc(b1-2)Man(a1-3)[GlcNAc(b1-2)Man(a1-6)]Man(b1-4)GlcNAc(b1-4)[Fuc(a1-6)]GlcNAc
# Procedure, shortened: as §1
# [35] = target: GlcNAc(b1-2)Man(a1-3)[GlcNAc(b1-4)][GlcNAc(b1-2)Man(a1-6)]Man(b1-4)GlcNAc(b1-4)GlcNAc
# Procedure, shortened: as §1
# [36] = target: GlcNAc(b1-2)Man(a1-3)[GlcNAc(b1-4)][GlcNAc(b1-2)Man(a1-6)]Man(b1-4)GlcNAc(b1-4)[Fuc(a1-6)]GlcNAc
# Procedure, shortened: as §1
# [37] = target: GlcNAc(b1-2)[GlcNAc(b1-4)]Man(a1-3)[GlcNAc(b1-2)Man(a1-6)]Man(b1-4)GlcNAc(b1-4)GlcNAc
# Procedure, shortened: as §1
# [38] = target: GlcNAc(b1-2)[GlcNAc(b1-4)]Man(a1-3)[GlcNAc(b1-4)][GlcNAc(b1-2)Man(a1-6)]Man(b1-4)GlcNAc(b1-4)GlcNAc
# Procedure, shortened: as §1
# [39] = target: GlcNAc(b1-2)[GlcNAc(b1-4)]Man(a1-3)[GlcNAc(b1-4)][GlcNAc(b1-2)[GlcNAc(b1-6)]Man(a1-6)]Man(b1-4)GlcNAc(b1-4)GlcNAc
# Procedure, shortened: as §1
# [40] = target: GlcNAc(b1-2)[GlcNAc(b1-4)]Man(a1-3)[GlcNAc(b1-4)][GlcNAc(b1-2)[GlcNAc(b1-6)]Man(a1-6)]Man(b1-4)GlcNAc(b1-4)[Fuc(a1-6)]GlcNAc
# Procedure, shortened: as §1
# [41] = target: GlcNAc(b1-2)[GlcNAc(b1-6)]Man(a1-6)[GlcNAc(b1-2)Man(a1-3)]Man(b1-4)GlcNAc(b1-4)GlcNAc
# Procedure, shortened: as §1
# [42] = target: GlcNAc(b1-2)[GlcNAc(b1-6)]Man(a1-6)[GlcNAc(b1-2)Man(a1-3)]Man(b1-4)GlcNAc(b1-4)[Fuc(a1-6)]GlcNAc
# Procedure, shortened: as §1
# [43] = target: GlcNAc(b1-2)[GlcNAc(b1-6)]Man(a1-6)[GlcNAc(b1-4)][GlcNAc(b1-2)Man(a1-3)]Man(b1-4)GlcNAc(b1-4)GlcNAc
# Procedure, shortened: as §1
# [44] = target: GlcNAc(b1-3)Fuc
# Procedure, shortened: as §1
# [45] = target: GlcNAc(b1-3)Gal
# Procedure, shortened: as §1
binder,measurement,setting,value
B1,glycan array binding signal (z-score),[1],0.427
same,glycan array binding signal (z-score),[2],-0.975
same,glycan array binding signal (z-score),[3],1.76
same,glycan array binding signal (z-score),[4],0.076
same,glycan array binding signal (z-score),[5],-0.111
same,glycan array binding signal (z-score),[6],0.065
same,glycan array binding signal (z-score),[7],-0.085
same,glycan array binding signal (z-score),[8],-0.552
same,glycan array binding signal (z-score),[9],-1.15
same,glycan array binding signal (z-score),[10],-0.058
same,glycan array binding signal (z-score),[11],-1.58
same,glycan array binding signal (z-score),[12],0.452
same,glycan array binding signal (z-score),[13],-0.179
same,glycan array binding signal (z-score),[14],0.034
same,glycan array binding signal (z-score),[15],-0.072
same,glycan array binding signal (z-score),[16],-0.612
same,glycan array binding signal (z-score),[17],-0.856
same,glycan array binding signal (z-score),[18],-0.66
same,glycan array binding signal (z-score),[19],-1.11
same,glycan array binding signal (z-score),[20],-0.202
same,glycan array binding signal (z-score),[21],-0.597
same,glycan array binding signal (z-score),[22],-0.788
same,glycan array binding signal (z-score),[23],-0.071
same,glycan array binding signal (z-score),[24],-0.928
same,glycan array binding signal (z-score),[25],-0.555
same,glycan array binding signal (z-score),[26],-0.292
same,glycan array binding signal (z-score),[27],-0.725
same,glycan array binding signal (z-score),[28],-0.087
same,glycan array binding signal (z-score),[29],-0.443
same,glycan array binding signal (z-score),[30],0.242
same,glycan array binding signal (z-score),[31],-0.535
same,glycan array binding signal (z-score),[32],0.451
same,glycan array binding signal (z-score),[33],-0.132
same,glycan array binding signal (z-score),[34],1.18
same,glycan array binding signal (z-score),[35],-0.202
same,glycan array binding signal (z-score),[36],-0.554
same,glycan array binding signal (z-score),[37],0.081
same,glycan array binding signal (z-score),[38],-0.558
same,glycan array binding signal (z-score),[39],-0.769
same,glycan array binding signal (z-score),[40],-0.217
same,glycan array binding signal (z-score),[41],-0.777
same,glycan array binding signal (z-score),[42],0.01
same,glycan array binding signal (z-score),[43],-0.837
same,glycan array binding signal (z-score),[44],0.611
same,glycan array binding signal (z-score),[45],-0.891

# Taken from the results shown (3 entries):
binder,measurement,setting,value
B1,glycan array binding signal (z-score),[41],-0.777
same,glycan array binding signal (z-score),[42],0.01
same,glycan array binding signal (z-score),[43],-0.837

# Source: the supplement of paper PMC8728848
